Experimental data as given in the supplement of paper PMC4604168 (melanoma cell lines).
This is one part of the list. Many values rest on one well or one pass, so single values are uncertain.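 The apoptosis fraction was the count of cleaved-PARP antibody-stained nuclei relative to all DNA-stained nuclei, imaged in 1,536-well plates. Screening doses were set so most cells survived, and baseline and induced cleaved-PARP levels vary greatly across cell lines.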

Tested on: COLO792
Test: cleaved PARP positive nuclei fraction relative to DMSO control; melanoma cells; higher = more apoptosis
Details: library dose: low library concentration; 72 h

| Compound | cleaved PARP positive nuclei fraction [%] |
| --- | --- |
| C[C@@H](Oc1cc(-c2cnn(C3CCNCC3)c2)cnc1N)c1c(Cl)ccc(F)c1Cl [Crizotinib] + O=C(O)c1ccc(-c2c[nH]c3ncc(-c4ccccc4)cc23)cc1C1CCCC1 [GSK650394] (first compound 0.2 µM, partner dose 0.16 µM) | 195 |
| CS(=O)(=O)CCNCc1ccc(-c2ccc3ncnc(Nc4ccc(OCc5cccc(F)c5)c(Cl)c4)c3c2)o1 [lapatinib] + NC(=O)Nc1cc(-c2cccc(F)c2)sc1C(=O)N[C@H]1CCCNC1 [AZD7762] (first compound 0.8 µM, partner dose 0.02 µM) | 174 |
| CNC(=O)c1cc(Oc2ccc(NC(=O)Nc3ccc(Cl)c(C(F)(F)F)c3)cc2)ccn1 [sorafenib] + NC(=O)Nc1cc(-c2cccc(F)c2)sc1C(=O)N[C@H]1CCCNC1 [AZD7762] (first compound 0.4 µM, partner dose 0.02 µM) | 81.6 |
| CN1CCN(c2ccc3nc(-c4c(N)c5c(F)cccc5[nH]c4=O)[nH]c3c2)CC1 [Dovitinib] + NCC(=O)Nc1ccc(-n2nc(C(F)(F)F)cc2-c2ccc3c(ccc4ccccc43)c2)cc1 [OSU03012] (first compound 0.1 µM, partner dose 1 µM) | 72.4 |
| C=C(c1ccc(C(=O)O)cc1)c1cc2c(cc1C)C(C)(C)CCC2(C)C [Bexarotene] + NC(=O)Nc1cc(-c2cccc(F)c2)sc1C(=O)N[C@H]1CCCNC1 [AZD7762] (first compound 2 µM, partner dose 0.02 µM) | 110 |
| Cn1c(=O)n(-c2ccc(C(C)(C)C#N)cc2)c2c3cc(-c4cnc5ccccc5c4)ccc3ncc21 + Cn1cncc1[C@@](N)(c1ccc(Cl)cc1)c1ccc2c(c1)c(-c1cccc(Cl)c1)cc(=O)n2C [tipifarnib] (first compound 0.004 µM, partner dose 0.01 µM) | 95.2 |
| C[C@@H](Oc1cc(-c2cnn(C3CCNCC3)c2)cnc1N)c1c(Cl)ccc(F)c1Cl [Crizotinib] + CN(NC(=O)CC(=O)NN(C)C(=S)c1ccccc1)C(=S)c1ccccc1 [STA4783] (first compound 0.2 µM, partner dose 0.006 µM) | 65.7 |
| CC(C)C[C@H](NC(=O)[C@H](Cc1ccccc1)NC(=O)c1cnccn1)B(O)O [Bortezomib] + COc1cc2c(Oc3ccc4[nH]c(C)cc4c3F)ncnc2cc1OCCCN1CCCC1 [cediranib] (first compound 0.001 µM, partner dose 0.4 µM) | 67.3 |
| Cc1cc(Nc2cc(N3CCN(C)CC3)nc(/C=C/c3ccccc3)n2)n[nH]1 + Cc1cc(N2CCOCC2)cc2[nH]c(-c3c(NC[C@@H](O)c4cccc(Cl)c4)cc[nH]c3=O)nc12 [BMS536924] (first compound 0.04 µM, partner dose 0.2 µM) | 105 |
| C[C@@H](Oc1cc(-c2cnn(C3CCNCC3)c2)cnc1N)c1c(Cl)ccc(F)c1Cl [Crizotinib] + CC1(C)NC(=O)N(c2ccc([N+](=O)[O-])c(C(F)(F)F)c2)C1=O [nilutamide] (first compound 0.2 µM, partner dose 1 µM) | 80.9 |
| Cn1c(=O)n(-c2ccc(C(C)(C)C#N)cc2)c2c3cc(-c4cnc5ccccc5c4)ccc3ncc21 + NC(=O)Nc1cc(-c2cccc(F)c2)sc1C(=O)N[C@H]1CCCNC1 [AZD7762] (first compound 0.004 µM, partner dose 0.02 µM) | 94.4 |
| CC(C)C[C@H](NC(=O)[C@H](Cc1ccccc1)NC(=O)c1cnccn1)B(O)O [Bortezomib] + O=C(O)c1ccc(-c2c[nH]c3ncc(-c4ccccc4)cc23)cc1C1CCCC1 [GSK650394] (first compound 0.001 µM, partner dose 0.16 µM) | 133 |
| C[C@@H](Oc1cc(-c2cnn(C3CCNCC3)c2)cnc1N)c1c(Cl)ccc(F)c1Cl [Crizotinib] + C[C@@H]1CCN(C(=O)CC#N)C[C@@H]1N(C)c1ncnc2[nH]ccc12 [CP690550] (first compound 0.2 µM, partner dose 1 µM) | 69.5 |
| CC(C)C[C@H](NC(=O)[C@H](Cc1ccccc1)NC(=O)c1cnccn1)B(O)O [Bortezomib] + Cc1cc(N2CCOCC2)cc2[nH]c(-c3c(NC[C@@H](O)c4cccc(Cl)c4)cc[nH]c3=O)nc12 [BMS536924] (first compound 0.001 µM, partner dose 0.2 µM) | 72.3 |
| Nc1ccn([C@@H]2O[C@H](CO)[C@@H](O)C2(F)F)c(=O)n1 [gemcitabine] + CC(C)(C)c1cnc(CSc2cnc(NC(=O)C3CCNCC3)s2)o1 [SNS-032] (first compound 0.0004 µM, partner dose 0.01 µM) | 121 |
| CCCS(=O)(=O)Nc1ccc(F)c(C(=O)c2c[nH]c3ncc(Cl)cc23)c1F + C=CCn1c(=O)c2cnc(Nc3ccc(N4CCN(C)CC4)cc3)nc2n1-c1cccc(C(C)(C)O)n1 [MK1775] (first compound 0.08 µM, partner dose 0.02 µM) | 215 |
| Nc1ccn([C@@H]2O[C@H](CO)[C@@H](O)C2(F)F)c(=O)n1 [gemcitabine] + CC1(C)NC(=O)N(c2ccc([N+](=O)[O-])c(C(F)(F)F)c2)C1=O [nilutamide] (first compound 0.0004 µM, partner dose 1 µM) | 74.9 |
| CC(C)C[C@H](NC(=O)[C@H](Cc1ccccc1)NC(=O)c1cnccn1)B(O)O [Bortezomib] + Cc1ccc(NC(=O)c2cccc(N(C)C)c2)cc1NC(=O)c1ccc(O)cc1 [ZM336372] (first compound 0.001 µM, partner dose 2 µM) | 64.8 |
| CCCS(=O)(=O)Nc1ccc(F)c(C(=O)c2c[nH]c3ncc(Cl)cc23)c1F + CN(NC(=O)CC(=O)NN(C)C(=S)c1ccccc1)C(=S)c1ccccc1 [STA4783] (first compound 0.08 µM, partner dose 0.006 µM) | 272 |
| O=C(O)[C@@H]1[O][Sb](=[O])([O][Sb]2(=[O])[O][C@H]([C@H](O)CO)[C@H](O)[C@H](C(=O)O)[O]2)[O][C@H]([C@H](O)CO)[C@@H]1O (some centres not stated) [stibogluconate] + C[C@@H]1CCN(C(=O)CC#N)C[C@@H]1N(C)c1ncnc2[nH]ccc12 [CP690550] (first compound 2 µM, partner dose 1 µM) | 103 |
| C=C(c1ccc(C(=O)O)cc1)c1cc2c(cc1C)C(C)(C)CCC2(C)C [Bexarotene] + Cc1ccc(NC(=O)c2cccc(N(C)C)c2)cc1NC(=O)c1ccc(O)cc1 [ZM336372] (first compound 2 µM, partner dose 2 µM) | 88.3 |
| Cc1cc(Nc2cc(N3CCN(C)CC3)nc(/C=C/c3ccccc3)n2)n[nH]1 + CO[C@@H]1[C@H](N(C)C(=O)c2ccccc2)C[C@H]2O[C@]1(C)n1c3ccccc3c3c4c(c5c6ccccc6n2c5c31)C(=O)NC4 [Midostaurin] (first compound 0.04 µM, partner dose 0.08 µM) | 95.7 |

Individual results from the results shown.
cleaved PARP positive nuclei fraction [%] with Nc1ccn([C@@H]2O[C@H](CO)[C@@H](O)C2(F)F)c(=O)n1 [gemcitabine] + CC(C)(C)c1cnc(CSc2cnc(NC(=O)C3CCNCC3)s2)o1 [SNS-032] (first compound 0.0004 µM, partner dose 0.01 µM) reads 121
cleaved PARP positive nuclei fraction [%] with CCCS(=O)(=O)Nc1ccc(F)c(C(=O)c2c[nH]c3ncc(Cl)cc23)c1F + CN(NC(=O)CC(=O)NN(C)C(=S)c1ccccc1)C(=S)c1ccccc1 [STA4783] (first compound 0.08 µM, partner dose 0.006 µM) reads 272
